In article PMC10724293, “New ruthenium-xanthoxylin complex eliminates colorectal cancer stem cells by targeting the heat shock protein 90 chaperone” (Cell Death & Disease, 2023):
pIC50: −log10 of the molar value.

System: MCF-7
Assay: Alamar blue cytotoxicity assay
Type: cell-based
Details: Homo sapiens, MCF7, 72 h, read-out: IC50 and 95%CI
Description: The Alamar blue assay was used to determine cell viability as previously described. Cells were seeded into 96-well plates at a density of 7 × 10^3 cells per well for adherent cells or 3 × 10^4 cells per well for suspended cells. The drug was added to each well after 24 h of incubation for adherent cells or immediately for suspended cells and incubated for an additional 72 h. […] Each well received 100 µM resazurin (Sigma-Aldrich Co. St. Louis, MO, United States) four (for cell lines) or 24 (for primary culture) h before the end of the incubation. A SpectraMax 190 Microplate Reader (Molecular Devices, Sunnyvale, CA, USA) was used to measure absorbance at 570 and 600 nm.

SMILES: COc1cccc2c1C(=O)c1c(O)c3c(c(O)c1C2=O)C[C@@](O)(C(=O)CO)C[C@@H]3O[C@H]1C[C@H](N)[C@H](O)[C@H](C)O1 [DOX, Doxorubicin, reference compound]
- pIC50: 5.75
